In article PMC10923651:
These are yes or no findings as the source states them, for the method shown. In cells and extracts the contact can be indirect. Here binding means that the protein was enriched with, or labelled near, the bait; the list need not be complete.

Amino acid sequences for entries named in this document (tags omitted).
UniProt A0A125YI50: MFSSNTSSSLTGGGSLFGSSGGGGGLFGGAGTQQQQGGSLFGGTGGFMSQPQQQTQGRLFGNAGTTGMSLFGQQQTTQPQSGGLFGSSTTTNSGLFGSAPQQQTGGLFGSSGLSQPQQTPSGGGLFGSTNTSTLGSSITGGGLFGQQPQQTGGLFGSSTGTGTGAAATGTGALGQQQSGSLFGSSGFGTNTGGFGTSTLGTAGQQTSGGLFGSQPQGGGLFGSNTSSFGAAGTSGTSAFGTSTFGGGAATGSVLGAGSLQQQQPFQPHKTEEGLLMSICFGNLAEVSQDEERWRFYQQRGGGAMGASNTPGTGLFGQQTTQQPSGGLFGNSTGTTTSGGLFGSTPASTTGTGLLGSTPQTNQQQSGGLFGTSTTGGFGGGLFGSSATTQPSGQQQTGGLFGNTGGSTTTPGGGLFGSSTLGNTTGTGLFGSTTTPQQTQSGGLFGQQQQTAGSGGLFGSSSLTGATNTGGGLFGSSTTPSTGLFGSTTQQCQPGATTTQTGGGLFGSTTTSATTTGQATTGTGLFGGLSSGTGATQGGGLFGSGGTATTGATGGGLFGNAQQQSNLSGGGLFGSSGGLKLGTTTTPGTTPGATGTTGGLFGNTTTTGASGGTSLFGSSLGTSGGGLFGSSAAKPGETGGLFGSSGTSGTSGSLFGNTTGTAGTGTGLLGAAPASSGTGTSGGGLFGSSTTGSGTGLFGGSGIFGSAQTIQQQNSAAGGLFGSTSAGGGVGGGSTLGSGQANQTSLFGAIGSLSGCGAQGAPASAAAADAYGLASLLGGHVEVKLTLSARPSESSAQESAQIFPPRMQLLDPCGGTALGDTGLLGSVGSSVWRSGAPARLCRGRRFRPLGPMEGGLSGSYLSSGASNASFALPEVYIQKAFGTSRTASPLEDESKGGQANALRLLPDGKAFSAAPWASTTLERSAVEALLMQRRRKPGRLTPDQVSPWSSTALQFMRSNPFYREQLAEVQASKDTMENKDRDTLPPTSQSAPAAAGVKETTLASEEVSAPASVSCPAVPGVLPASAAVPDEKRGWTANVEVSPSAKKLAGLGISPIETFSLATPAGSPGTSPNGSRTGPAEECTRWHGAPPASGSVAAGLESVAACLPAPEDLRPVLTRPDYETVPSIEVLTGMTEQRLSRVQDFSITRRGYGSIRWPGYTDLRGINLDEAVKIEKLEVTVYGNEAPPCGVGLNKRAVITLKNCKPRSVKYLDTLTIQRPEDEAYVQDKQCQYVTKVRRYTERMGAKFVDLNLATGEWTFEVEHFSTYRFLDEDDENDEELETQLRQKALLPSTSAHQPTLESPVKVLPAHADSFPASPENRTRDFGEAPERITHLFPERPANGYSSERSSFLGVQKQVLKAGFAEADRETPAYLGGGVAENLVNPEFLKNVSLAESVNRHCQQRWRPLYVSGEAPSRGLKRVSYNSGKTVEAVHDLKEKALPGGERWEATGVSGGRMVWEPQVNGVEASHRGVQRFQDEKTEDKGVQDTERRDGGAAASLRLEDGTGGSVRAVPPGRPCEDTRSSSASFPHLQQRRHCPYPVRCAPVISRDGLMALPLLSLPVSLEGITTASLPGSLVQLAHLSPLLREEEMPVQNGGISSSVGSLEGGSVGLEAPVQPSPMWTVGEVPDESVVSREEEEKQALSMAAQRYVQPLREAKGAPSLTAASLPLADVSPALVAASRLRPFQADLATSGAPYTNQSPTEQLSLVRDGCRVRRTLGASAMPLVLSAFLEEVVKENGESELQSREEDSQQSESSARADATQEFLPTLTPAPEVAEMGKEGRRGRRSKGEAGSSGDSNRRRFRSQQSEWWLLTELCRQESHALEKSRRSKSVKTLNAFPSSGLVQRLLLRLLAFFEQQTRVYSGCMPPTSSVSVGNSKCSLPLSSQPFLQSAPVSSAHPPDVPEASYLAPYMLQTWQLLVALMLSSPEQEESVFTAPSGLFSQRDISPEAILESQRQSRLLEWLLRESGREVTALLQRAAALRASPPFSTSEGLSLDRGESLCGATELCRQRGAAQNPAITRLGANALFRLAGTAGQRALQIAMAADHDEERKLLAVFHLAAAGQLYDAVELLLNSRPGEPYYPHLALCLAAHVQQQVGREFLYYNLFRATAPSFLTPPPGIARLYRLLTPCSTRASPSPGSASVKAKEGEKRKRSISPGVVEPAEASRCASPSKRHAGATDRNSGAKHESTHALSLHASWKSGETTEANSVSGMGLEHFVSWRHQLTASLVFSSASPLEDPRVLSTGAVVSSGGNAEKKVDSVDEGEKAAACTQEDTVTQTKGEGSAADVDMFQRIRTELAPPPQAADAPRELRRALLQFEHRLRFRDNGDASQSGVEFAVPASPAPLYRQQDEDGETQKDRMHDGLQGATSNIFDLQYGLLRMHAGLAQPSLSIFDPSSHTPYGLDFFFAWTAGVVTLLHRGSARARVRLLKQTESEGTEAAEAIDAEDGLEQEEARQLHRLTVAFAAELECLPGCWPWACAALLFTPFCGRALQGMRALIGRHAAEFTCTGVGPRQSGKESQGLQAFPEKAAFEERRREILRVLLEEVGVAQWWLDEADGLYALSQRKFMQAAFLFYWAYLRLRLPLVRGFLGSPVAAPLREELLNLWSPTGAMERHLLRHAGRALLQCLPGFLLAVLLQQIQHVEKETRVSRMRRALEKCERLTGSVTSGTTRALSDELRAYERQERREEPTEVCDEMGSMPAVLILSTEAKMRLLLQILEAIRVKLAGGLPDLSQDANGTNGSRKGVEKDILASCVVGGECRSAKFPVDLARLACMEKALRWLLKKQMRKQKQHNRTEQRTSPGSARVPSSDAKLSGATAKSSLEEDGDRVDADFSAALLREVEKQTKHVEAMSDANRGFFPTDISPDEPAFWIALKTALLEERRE
UniProt S8F418: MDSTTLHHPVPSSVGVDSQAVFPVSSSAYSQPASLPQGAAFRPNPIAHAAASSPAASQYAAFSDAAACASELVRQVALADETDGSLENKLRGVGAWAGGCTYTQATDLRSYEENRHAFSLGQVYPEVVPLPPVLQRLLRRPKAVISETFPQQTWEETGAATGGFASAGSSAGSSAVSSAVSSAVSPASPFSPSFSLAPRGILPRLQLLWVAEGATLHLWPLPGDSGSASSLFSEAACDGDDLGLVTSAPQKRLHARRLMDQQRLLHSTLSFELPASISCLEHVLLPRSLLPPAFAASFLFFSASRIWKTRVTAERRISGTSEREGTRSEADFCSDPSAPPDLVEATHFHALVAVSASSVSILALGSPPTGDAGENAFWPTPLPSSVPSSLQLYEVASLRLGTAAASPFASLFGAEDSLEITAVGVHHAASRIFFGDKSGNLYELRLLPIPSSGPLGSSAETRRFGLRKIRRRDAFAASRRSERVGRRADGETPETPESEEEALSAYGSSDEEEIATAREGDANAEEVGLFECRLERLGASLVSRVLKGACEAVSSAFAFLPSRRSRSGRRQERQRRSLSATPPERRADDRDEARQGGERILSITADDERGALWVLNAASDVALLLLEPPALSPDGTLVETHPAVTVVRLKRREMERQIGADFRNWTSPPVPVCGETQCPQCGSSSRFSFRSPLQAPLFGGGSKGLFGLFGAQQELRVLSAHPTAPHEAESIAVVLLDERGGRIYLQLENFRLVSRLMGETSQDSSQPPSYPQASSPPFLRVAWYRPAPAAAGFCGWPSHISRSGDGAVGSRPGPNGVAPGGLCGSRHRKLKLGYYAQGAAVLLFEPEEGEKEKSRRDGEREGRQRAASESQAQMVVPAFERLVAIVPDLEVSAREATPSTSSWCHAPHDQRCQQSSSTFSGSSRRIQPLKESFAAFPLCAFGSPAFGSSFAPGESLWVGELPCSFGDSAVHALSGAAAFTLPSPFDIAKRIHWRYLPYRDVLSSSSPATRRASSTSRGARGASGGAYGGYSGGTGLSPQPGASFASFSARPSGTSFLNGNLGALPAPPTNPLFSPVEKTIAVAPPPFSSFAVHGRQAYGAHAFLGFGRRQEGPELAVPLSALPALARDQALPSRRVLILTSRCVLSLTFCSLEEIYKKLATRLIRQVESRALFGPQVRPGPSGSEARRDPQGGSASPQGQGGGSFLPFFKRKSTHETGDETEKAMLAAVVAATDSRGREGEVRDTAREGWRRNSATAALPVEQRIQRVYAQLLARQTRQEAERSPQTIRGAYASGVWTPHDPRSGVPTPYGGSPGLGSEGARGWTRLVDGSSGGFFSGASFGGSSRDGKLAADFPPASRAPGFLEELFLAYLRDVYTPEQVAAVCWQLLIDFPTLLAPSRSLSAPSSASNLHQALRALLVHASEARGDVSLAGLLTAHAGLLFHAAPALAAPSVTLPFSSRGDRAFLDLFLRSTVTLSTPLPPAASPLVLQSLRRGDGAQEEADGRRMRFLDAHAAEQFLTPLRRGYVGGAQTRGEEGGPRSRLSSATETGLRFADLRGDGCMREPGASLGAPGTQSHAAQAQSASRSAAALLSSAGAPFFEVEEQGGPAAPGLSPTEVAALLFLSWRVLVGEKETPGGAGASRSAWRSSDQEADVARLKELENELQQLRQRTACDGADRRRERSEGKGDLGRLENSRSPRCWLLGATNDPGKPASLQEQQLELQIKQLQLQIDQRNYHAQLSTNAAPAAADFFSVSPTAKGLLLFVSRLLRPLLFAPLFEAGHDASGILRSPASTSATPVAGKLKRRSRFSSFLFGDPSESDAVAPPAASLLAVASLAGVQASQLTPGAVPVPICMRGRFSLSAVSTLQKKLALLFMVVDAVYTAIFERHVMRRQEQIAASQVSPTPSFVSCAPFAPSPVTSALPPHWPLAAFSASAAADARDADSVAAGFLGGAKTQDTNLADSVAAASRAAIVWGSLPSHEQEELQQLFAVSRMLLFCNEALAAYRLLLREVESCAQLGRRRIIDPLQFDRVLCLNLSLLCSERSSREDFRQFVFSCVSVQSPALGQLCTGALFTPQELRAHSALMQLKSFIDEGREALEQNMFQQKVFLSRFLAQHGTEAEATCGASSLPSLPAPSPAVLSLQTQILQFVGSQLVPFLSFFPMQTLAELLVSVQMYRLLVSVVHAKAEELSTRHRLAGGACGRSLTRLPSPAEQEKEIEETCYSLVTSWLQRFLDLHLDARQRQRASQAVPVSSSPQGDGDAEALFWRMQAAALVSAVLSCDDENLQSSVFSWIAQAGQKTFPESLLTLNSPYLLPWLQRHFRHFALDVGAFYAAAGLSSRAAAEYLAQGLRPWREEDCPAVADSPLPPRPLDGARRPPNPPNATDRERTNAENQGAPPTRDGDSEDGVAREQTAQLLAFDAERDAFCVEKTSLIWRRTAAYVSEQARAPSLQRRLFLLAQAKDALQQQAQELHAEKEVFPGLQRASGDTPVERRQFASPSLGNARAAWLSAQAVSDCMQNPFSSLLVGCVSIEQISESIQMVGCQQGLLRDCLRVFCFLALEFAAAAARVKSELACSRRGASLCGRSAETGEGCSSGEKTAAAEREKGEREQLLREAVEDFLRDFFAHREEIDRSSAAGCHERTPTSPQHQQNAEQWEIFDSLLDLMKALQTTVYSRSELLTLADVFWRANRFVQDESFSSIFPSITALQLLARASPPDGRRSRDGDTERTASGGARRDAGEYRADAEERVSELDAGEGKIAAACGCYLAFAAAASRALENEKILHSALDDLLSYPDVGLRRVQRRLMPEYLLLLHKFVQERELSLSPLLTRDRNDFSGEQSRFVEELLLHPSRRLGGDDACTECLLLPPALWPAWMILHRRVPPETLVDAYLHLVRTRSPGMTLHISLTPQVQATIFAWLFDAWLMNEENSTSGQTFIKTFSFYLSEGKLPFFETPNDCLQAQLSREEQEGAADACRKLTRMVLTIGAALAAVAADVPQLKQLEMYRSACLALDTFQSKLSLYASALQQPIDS
UniProt A0A125YIH2: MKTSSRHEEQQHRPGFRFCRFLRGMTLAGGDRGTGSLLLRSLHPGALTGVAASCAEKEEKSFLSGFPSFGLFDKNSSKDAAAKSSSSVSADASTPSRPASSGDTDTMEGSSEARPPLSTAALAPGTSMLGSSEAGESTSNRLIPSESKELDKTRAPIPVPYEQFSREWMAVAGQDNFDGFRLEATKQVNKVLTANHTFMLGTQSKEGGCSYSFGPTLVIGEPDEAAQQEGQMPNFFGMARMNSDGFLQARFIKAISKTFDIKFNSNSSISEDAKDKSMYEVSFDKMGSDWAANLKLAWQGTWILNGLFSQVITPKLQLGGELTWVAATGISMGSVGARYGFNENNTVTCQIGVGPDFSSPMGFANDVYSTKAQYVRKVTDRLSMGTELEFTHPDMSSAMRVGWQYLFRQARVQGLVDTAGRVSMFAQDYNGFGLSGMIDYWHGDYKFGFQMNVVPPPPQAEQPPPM

B1: Hypothetical protein TGME49_287500 (protein, UniProt S8F8T7 1-556)
chain: MFANRYGLSGLLKEGHRSFTGIDEVTAKNIDACKALTDLTRTSLGPNSLSKLVVTSLGKRIVTAHTSLIVKELEVQHPAAKMLAMAAEMQQQEFGGAVNLLLVFAGQLLAQAEYLLKQGLHPNDVARGYEMAVAKLPAFLEESVCYTLKSLNDEQALAEVLESTVATKPLCTEGRLHKLVAQAAAMVMPPNNPKDFDVENIRVAKLTGGRLSQSVVLKGMVVTRPPSGSVESKQNCKVMVLGCGLECSTTEAKGTVLVHNAEELKNFTKGEERQMEEIIKGIKDAGVEVIIVHGGAISDVAQHFCNKYDILTLKIQSKFETRRLCRALGATAVVRLGVPTPEELGSCLSITVSEISSKKVTNILTKDSRVCTVVLRGSTPSVLDEAERAIDDAANLVKALTQDPRLVAGAGAAEMEMSRKFAAFGATLPGVEQYAVLKFGEAFEMIPRLLAESSGHSGTEALAALHAAHGQGRVHEGVNTDISVSYPSFKSAAAASAPSLTINAVEKKIYDHHKMKQWALRLGADAALTVLRVDQIIMARPAGGPAPRAPGAPDLD

The molecules below were run against N-terminally HA-tagged TgNup503 (Toxoplasma gondii) (UniProt S8GIN8) (assay: affinity purification with mass spectrometry; anti-HA beads; nuclear and insoluble extracts of 5 × 10^8 tachyzoites, 16–24 h at 4°C, washes in TBS with Tween 20; two repeats, three negative controls from a parental line with no HA-tagged protein).

Q: How did the binding turn out when “TgNup302 (from UniProt A0A125YI50 1-2894)” was run?
A: Its binding is “binds”.

Q: Which binding does the source give for “Hypothetical protein TGME49_258970 (from UniProt S8F418 1-3039)” here?
A: Its binding is “binds”.

Q: For TgTom40 (from UniProt A0A125YIH2 1-466), which binding is on record?
A: Its binding is “binds”.

Q: For B1, which binding is on record?
A: The binding was “binds”.
